Data set [1] has as its target MED1 methyl-CpG binding domain (MBD) (Homo sapiens) (UniProt O95243). The data set is described as follows: EMSA. The following applies: 5mC at every n (five symmetrical methyl-CpG sites) [5mC top 9, 16, 22, 30, 37; 5mC bottom 10, 17, 25, 31, 38]; purified recombinant protein; protein details: 6xHis carboxyterminal fusion (E. coli); label: 32P; letters built from the parent sequence and the stated change. In general terms: In EMSA bound probe runs differently from free probe, usually more slowly.

By UniProt entry, the sequences of proteins in these tests, tags left out. Residues count along the entry.
UniProt O95243, 1-154: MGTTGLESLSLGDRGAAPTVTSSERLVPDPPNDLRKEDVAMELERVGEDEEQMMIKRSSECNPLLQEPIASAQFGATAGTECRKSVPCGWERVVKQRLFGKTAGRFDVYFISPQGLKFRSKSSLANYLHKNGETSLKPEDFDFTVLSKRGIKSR

Data set [2] concerns the target Flag-MED1/f5 (Homo sapiens) (UniProt O95243). Description: EMSA. The following applies: 5mC at every n (five symmetrical methyl-CpG sites) [5mC top 9, 16, 22, 30, 37; 5mC bottom 10, 17, 25, 31, 38]; abolished by 100-fold cold oligo; poly(dI-dC), room temperature; protein in a lysate after overexpression; label: 32P; letters built from the parent sequence and the stated change.

The target of data set [3] is MED1 (MBD4) full length (Homo sapiens) (UniProt O95243). Description: enzyme reaction in vitro. The following applies: no cleavage, 1 to 5 extrahelical bases; purified recombinant protein; protein details: 6xHis (pET28b, E. coli); label: 32P bottom strand.

Construct, isoform or probe ends are uncertain for at least one entry. For some of these results: A negative result means that nothing was seen under these conditions. For some of these results: At least one result comes from cells or an extract, where the contact may be indirect.

Consider “GCGAATTCCGTGCGACGAAGCCGGACGATCGACCAGCGCTCGAGCA / GTGCTCGAGCGCTGGTCGATCGTCCGGCTTCGTCGCACGGAATTCG [methylated CpG probe]”, for which the binding result in data set [1] and in data set [2] was “binds” throughout.

For the sequence “CCGTCATGCTAGTTCACTTTATGCTTCCGGCTCGGTCGTCATGTGTGGAATTGTGATTAAAATCG / GCGATTTTAATCACAATTCCACACATGACGCGAGCCGGAAGCATAAAGTGAACTAGCATGACG [GT insertion substrate]”, the “activity on this sequence” value in data set [3] is reported as “not active”. The same measure, in the same setting: next, “CCGTCATGCTAGTTCACTTTATGCTTCCGGCTCGGTACCGTCATGTGTGGAATTGTGATTAAAATCG / GCGATTTTAATCACAATTCCACACATGACGCGAGCCGGAAGCATAAAGTGAACTAGCATGACG [GTAC insertion substrate]”: “not active”; “CCGTCATGCTAGTTCACTTTATGCTTCCGGCTCGGTACTCGTCATGTGTGGAATTGTGATTAAAATCG / GCGATTTTAATCACAATTCCACACATGACGCGAGCCGGAAGCATAAAGTGAACTAGCATGACG [GTACT insertion substrate]”: “not active”; “CCGTCATGCTAGTTCACTTTATGCTTCCGGCTCGGTACGTCATGTGTGGAATTGTGATTAAAATCG / GCGATTTTAATCACAATTCCACACATGACGCGAGCCGGAAGCATAAAGTGAACTAGCATGACG [GTA insertion substrate]”: “not active”.

As for “CCGTCATGCTAGTTCACTTTATGCTTCCGGCTCGGGGGGCGTCATGTGTGGAATTGTGATTAAAATCG / GCGATTTTAATCACAATTCCACACATGACGCGAGCCGGAAGCATAAAGTGAACTAGCATGACG [GGGGG insertion substrate]”, the “activity on this sequence” value in data set [3] is recorded as “not active”.

For the origin of these results see patent US20040018550.
